From paper PMC2744924 come the findings set out here.

Chains of the proteins cited; added tags and fusions are not shown.
UniProt Q8IZP0: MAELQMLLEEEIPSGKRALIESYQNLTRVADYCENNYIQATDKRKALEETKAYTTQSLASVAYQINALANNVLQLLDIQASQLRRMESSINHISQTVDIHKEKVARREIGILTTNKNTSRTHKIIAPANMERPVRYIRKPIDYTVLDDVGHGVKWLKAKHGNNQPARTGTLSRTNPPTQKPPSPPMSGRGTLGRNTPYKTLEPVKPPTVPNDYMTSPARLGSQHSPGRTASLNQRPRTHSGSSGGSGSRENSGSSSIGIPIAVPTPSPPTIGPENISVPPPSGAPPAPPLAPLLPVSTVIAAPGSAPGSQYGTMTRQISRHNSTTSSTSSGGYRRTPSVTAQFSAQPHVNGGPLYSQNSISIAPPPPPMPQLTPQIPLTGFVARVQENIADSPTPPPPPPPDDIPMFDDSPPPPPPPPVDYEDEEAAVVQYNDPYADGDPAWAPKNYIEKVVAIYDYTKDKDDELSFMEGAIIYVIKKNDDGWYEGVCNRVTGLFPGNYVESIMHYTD
UniProt P60953: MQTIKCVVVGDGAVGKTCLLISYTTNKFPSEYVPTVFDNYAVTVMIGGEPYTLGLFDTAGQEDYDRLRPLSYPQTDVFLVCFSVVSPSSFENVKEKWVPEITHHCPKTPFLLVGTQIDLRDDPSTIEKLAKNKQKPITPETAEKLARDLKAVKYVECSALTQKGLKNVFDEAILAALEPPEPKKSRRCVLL
UniProt O00401: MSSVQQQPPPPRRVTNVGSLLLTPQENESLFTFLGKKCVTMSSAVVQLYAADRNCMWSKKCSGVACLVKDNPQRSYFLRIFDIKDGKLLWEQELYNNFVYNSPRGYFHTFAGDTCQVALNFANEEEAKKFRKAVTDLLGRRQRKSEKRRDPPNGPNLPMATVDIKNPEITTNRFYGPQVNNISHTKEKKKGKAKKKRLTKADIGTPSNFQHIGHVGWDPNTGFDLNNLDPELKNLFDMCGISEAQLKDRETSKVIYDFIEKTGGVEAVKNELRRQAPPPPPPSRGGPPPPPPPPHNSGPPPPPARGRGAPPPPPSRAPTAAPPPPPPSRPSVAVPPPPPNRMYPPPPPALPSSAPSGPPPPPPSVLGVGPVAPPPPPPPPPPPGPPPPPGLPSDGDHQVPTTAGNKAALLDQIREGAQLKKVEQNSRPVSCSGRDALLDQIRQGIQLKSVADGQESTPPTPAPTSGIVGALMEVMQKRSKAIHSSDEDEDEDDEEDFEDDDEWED
UniProt Q9Y6W5: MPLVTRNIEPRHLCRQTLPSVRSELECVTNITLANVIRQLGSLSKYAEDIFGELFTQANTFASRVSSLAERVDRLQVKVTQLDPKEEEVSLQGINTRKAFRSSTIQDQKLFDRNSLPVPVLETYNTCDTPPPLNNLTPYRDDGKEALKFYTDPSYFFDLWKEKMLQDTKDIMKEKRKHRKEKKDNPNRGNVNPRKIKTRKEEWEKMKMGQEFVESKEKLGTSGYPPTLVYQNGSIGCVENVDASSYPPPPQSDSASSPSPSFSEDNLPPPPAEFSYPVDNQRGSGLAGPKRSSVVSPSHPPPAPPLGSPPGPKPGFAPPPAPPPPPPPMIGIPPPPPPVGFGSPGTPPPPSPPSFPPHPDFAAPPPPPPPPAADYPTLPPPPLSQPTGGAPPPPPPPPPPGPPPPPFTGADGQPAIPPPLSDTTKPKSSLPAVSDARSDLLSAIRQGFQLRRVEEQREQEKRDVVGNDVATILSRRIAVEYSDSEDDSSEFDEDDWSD
UniProt O43516: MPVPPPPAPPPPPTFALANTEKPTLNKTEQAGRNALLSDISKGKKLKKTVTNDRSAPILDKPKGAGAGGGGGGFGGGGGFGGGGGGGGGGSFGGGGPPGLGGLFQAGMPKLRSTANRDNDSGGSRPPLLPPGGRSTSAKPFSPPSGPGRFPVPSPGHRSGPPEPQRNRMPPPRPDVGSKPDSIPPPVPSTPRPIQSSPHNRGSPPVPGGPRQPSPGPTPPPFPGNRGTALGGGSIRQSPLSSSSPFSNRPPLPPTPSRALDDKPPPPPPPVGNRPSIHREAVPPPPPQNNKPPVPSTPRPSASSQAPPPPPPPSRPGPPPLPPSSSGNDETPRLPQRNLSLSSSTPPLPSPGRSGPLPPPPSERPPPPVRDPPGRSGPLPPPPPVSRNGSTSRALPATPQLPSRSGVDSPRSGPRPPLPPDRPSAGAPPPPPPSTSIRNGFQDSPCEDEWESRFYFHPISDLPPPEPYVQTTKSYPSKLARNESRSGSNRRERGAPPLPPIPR

Experiment [1] has as its target T1, SH3 domain of mammalian (human) TOCA-1 fused to GST (human) (UniProt Q5T0N5).
T1 sequence: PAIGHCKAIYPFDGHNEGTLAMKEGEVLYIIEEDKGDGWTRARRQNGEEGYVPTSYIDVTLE
In words: pull-down; purified N-WASP incubated with SH3-GST fusion proteins (10 ug); bound N-WASP by immunoblot; both purified.

For experiment [2], the target named is ABI-1, endogenous in HeLa lysate (human (endogenous in HeLa)) (UniProt Q8IZP0). Briefly: co-IP; endogenous proteins; total HeLa lysates (2 mg) immunoprecipitated with anti-ABI-1 or control unrelated IgG (WAVE2 also told in TOCA-1 immunoprecipitates); immunoblot.
The target in another experiment is T2, TOCA-1-HA (human) (UniProt Q5T0N5).
T2 sequence: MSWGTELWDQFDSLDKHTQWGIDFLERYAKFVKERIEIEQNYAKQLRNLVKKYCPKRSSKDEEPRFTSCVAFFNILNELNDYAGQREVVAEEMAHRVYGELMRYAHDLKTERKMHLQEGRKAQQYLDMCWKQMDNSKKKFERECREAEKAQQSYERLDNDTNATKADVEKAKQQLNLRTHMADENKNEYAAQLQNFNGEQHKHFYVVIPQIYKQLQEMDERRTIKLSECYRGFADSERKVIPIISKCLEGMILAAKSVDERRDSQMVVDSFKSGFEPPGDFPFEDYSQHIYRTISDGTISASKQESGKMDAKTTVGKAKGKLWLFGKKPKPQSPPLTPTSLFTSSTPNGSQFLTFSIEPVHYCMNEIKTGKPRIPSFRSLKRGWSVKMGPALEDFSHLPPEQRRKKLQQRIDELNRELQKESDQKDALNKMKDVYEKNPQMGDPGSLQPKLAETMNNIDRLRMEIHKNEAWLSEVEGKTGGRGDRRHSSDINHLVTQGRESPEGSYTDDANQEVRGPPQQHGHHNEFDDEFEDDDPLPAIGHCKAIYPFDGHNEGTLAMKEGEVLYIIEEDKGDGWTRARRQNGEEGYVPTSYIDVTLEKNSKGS
In words: co-IP; lysates of transfected HeLa cells; IP with anti-HA (TOCA-1-HA) or anti-ABI1 (ABI1-HA) antibody; immunoblot. For orientation: A western blot detects proteins with antibodies after separation by electrophoresis.

In experiment [3] the target is T1, SH3 domain of mammalian (human) TOCA-1 fused to GST (human). Briefly: pull-down; GST-SH3 fusion proteins immobilised (5-15 ug), incubated with total HeLa cell lysates (1-2 mg); bound proteins by immunoblot; only the target purified.
In experiment [4] the target is T3, SH3 domain of C. elegans CeTOCA-1 fused to GST (C. elegans) (UniProt Q19253).
T3 sequence: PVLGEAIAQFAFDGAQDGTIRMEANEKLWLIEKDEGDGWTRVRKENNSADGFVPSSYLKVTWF
The description is as above.

Experiment [5] concerns the target T4, SH3 domain of C. elegans CeTOCA-2 fused to GST (C. elegans) (UniProt Q9XUS7).
T4 sequence: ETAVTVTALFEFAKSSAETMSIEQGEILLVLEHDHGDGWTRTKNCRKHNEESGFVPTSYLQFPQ
The experiment is described as above.

The target in the next experiment is GST-Cdc42 (UniProt P60953). In words: pull-down; immobilised GTP-gamma-S-loaded GST-Cdc42 (10 ug) incubated with lysates (1 mg) of HeLa cells, untransfected or transfected; immunoblot; only the target purified.
Experiment [6] deals with ABI-1, endogenous in HeLa lysate (human (endogenous in HeLa)) (UniProt Q8IZP0). Briefly: co-IP; endogenous proteins; total HeLa lysates (2 mg) immunoprecipitated with anti-ABI-1 or control unrelated IgG (WAVE2 also told in TOCA-1 immunoprecipitates); immunoblot. The source holds these as a separate data set.

Where two headings read alike, the source gives them in different places. Results are given in words; binding and its absence hold for the method and conditions named. For some assays here: In cells and extracts the contact can be indirect. Some results given as binding are weak or reduced against the parent protein; the word gives no strength. For some assays here: Sequences can lack the tags named with a protein.

As for “Purified N-WASP (from UniProt O00401 1-505)”, the binding entry in experiment [1] was “binds”.

In the case of “WAVE2, endogenous in HeLa lysate (from UniProt Q9Y6W5 1-498)”, in experiment [2], the binding result is recorded as “binds”.

Take ABI-1-GFP (from UniProt Q8IZP0 1-508): the binding result with TOCA-1-HA (human) is on record as “binds”.

For “WIP, endogenous in HeLa lysate (from UniProt O43516 1-503)”, in experiment [3], the binding entry is reported as “binds”.

For the molecule “mammalian N-WASP, endogenous in HeLa lysate (from UniProt O00401 1-505)”, the binding result in experiment [4], in experiment [5] and in experiment [3] was “binds” throughout.

As to “ABI-1, endogenous in HeLa lysate (from UniProt Q8IZP0 1-508)”, the binding entry in experiment [3] is recorded as “binds”.

B1: TOCA-1, endogenous in HeLa lysate (protein, UniProt Q5T0N5 1-605)
chain: MSWGTELWDQFDSLDKHTQWGIDFLERYAKFVKERIEIEQNYAKQLRNLVKKYCPKRSSKDEEPRFTSCVAFFNILNELNDYAGQREVVAEEMAHRVYGELMRYAHDLKTERKMHLQEGRKAQQYLDMCWKQMDNSKKKFERECREAEKAQQSYERLDNDTNATKADVEKAKQQLNLRTHMADENKNEYAAQLQNFNGEQHKHFYVVIPQIYKQLQEMDERRTIKLSECYRGFADSERKVIPIISKCLEGMILAAKSVDERRDSQMVVDSFKSGFEPPGDFPFEDYSQHIYRTISDGTISASKQESGKMDAKTTVGKAKGKLWLFGKKPKPQSPPLTPTSLFTSSTPNGSQFLTFSIEPVHYCMNEIKTGKPRIPSFRSLKRGWSVKMGPALEDFSHLPPEQRRKKLQQRIDELNRELQKESDQKDALNKMKDVYEKNPQMGDPGSLQPKLAETMNNIDRLRMEIHKNEAWLSEVEGKTGGRGDRRHSSDINHLVTQGRESPEGSYTDDANQEVRGPPQQHGHHNEFDDEFEDDDPLPAIGHCKAIYPFDGHNEGTLAMKEGEVLYIIEEDKGDGWTRARRQNGEEGYVPTSYIDVTLEKNSKGS
As to B1, the binding result (in the experiment with GST-Cdc42; in experiment [6]) was “binds” in each case.

B2: TOCA-1-HA (protein, UniProt Q5T0N5 1-605)
chain: MSWGTELWDQFDSLDKHTQWGIDFLERYAKFVKERIEIEQNYAKQLRNLVKKYCPKRSSKDEEPRFTSCVAFFNILNELNDYAGQREVVAEEMAHRVYGELMRYAHDLKTERKMHLQEGRKAQQYLDMCWKQMDNSKKKFERECREAEKAQQSYERLDNDTNATKADVEKAKQQLNLRTHMADENKNEYAAQLQNFNGEQHKHFYVVIPQIYKQLQEMDERRTIKLSECYRGFADSERKVIPIISKCLEGMILAAKSVDERRDSQMVVDSFKSGFEPPGDFPFEDYSQHIYRTISDGTISASKQESGKMDAKTTVGKAKGKLWLFGKKPKPQSPPLTPTSLFTSSTPNGSQFLTFSIEPVHYCMNEIKTGKPRIPSFRSLKRGWSVKMGPALEDFSHLPPEQRRKKLQQRIDELNRELQKESDQKDALNKMKDVYEKNPQMGDPGSLQPKLAETMNNIDRLRMEIHKNEAWLSEVEGKTGGRGDRRHSSDINHLVTQGRESPEGSYTDDANQEVRGPPQQHGHHNEFDDEFEDDDPLPAIGHCKAIYPFDGHNEGTLAMKEGEVLYIIEEDKGDGWTRARRQNGEEGYVPTSYIDVTLEKNSKGS
As for B2, the binding entry in the experiment with GST-Cdc42 is “binds”.
